Measured values as given in paper PMC10114496.

Chains of the proteins cited; added tags and fusions are not shown.
UniProt Q9NVP2: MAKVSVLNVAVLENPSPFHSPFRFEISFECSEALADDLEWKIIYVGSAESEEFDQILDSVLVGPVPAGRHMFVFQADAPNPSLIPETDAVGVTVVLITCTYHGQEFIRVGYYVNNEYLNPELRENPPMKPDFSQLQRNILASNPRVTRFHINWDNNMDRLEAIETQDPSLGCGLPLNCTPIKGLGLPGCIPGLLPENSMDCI
UniProt Q9NVI1: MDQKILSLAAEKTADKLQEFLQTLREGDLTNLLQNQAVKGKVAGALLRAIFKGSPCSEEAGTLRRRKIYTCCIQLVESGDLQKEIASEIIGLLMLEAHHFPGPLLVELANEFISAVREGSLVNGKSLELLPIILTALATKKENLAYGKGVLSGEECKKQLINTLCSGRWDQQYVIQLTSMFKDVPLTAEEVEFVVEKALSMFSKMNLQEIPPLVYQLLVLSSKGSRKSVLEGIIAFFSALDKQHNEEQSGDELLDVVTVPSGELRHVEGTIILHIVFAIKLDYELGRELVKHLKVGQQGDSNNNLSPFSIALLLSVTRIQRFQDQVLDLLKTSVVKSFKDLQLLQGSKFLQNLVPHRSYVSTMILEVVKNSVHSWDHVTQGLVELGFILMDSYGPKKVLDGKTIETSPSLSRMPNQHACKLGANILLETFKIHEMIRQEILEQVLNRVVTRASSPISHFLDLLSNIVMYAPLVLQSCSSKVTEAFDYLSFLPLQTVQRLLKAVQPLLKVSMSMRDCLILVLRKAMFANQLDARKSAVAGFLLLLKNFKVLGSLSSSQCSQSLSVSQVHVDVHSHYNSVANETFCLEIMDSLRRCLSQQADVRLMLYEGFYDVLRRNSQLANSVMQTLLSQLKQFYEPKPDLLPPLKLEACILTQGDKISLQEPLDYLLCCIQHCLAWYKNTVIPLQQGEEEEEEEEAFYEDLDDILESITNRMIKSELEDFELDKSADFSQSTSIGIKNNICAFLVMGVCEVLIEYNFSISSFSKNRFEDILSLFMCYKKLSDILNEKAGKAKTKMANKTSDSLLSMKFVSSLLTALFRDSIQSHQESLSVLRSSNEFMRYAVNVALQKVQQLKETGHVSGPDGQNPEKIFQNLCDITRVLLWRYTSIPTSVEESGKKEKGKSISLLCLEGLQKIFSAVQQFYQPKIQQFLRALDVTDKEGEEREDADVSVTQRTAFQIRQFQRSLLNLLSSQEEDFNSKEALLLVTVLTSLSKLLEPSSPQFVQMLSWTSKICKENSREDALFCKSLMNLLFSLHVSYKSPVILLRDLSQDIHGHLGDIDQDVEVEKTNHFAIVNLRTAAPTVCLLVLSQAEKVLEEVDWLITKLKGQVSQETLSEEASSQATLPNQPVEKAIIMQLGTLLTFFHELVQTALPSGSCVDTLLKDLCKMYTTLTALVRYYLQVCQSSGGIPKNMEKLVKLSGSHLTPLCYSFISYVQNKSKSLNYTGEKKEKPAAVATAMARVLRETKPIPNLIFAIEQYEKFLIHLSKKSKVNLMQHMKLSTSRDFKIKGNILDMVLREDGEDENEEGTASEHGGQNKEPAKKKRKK
UniProt P54198: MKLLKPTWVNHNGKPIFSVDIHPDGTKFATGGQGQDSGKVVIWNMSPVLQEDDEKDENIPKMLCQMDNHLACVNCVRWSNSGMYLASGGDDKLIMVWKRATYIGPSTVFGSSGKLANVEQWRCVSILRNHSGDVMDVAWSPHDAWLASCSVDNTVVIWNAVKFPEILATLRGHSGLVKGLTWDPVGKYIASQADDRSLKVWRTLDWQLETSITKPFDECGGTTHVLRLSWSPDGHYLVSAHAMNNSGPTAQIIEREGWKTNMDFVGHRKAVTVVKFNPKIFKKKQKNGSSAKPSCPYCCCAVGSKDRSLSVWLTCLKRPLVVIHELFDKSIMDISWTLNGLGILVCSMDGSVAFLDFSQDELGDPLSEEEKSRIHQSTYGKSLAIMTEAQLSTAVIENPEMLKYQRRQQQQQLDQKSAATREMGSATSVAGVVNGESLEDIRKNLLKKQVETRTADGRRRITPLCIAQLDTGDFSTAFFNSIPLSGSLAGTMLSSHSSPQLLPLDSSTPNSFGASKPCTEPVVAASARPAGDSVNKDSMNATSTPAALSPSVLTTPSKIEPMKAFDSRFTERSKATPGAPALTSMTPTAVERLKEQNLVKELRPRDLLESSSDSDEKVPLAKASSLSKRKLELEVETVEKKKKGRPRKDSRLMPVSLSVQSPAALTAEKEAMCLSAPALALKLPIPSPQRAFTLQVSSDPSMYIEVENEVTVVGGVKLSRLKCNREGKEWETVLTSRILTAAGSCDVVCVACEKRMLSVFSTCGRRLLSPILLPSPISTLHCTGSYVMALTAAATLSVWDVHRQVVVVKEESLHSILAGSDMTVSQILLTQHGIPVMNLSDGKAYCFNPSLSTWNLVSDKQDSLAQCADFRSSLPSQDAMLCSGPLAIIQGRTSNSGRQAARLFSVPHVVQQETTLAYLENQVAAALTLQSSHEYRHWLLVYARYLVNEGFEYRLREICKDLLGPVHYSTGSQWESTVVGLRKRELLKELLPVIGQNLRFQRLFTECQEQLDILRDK
UniProt P52701: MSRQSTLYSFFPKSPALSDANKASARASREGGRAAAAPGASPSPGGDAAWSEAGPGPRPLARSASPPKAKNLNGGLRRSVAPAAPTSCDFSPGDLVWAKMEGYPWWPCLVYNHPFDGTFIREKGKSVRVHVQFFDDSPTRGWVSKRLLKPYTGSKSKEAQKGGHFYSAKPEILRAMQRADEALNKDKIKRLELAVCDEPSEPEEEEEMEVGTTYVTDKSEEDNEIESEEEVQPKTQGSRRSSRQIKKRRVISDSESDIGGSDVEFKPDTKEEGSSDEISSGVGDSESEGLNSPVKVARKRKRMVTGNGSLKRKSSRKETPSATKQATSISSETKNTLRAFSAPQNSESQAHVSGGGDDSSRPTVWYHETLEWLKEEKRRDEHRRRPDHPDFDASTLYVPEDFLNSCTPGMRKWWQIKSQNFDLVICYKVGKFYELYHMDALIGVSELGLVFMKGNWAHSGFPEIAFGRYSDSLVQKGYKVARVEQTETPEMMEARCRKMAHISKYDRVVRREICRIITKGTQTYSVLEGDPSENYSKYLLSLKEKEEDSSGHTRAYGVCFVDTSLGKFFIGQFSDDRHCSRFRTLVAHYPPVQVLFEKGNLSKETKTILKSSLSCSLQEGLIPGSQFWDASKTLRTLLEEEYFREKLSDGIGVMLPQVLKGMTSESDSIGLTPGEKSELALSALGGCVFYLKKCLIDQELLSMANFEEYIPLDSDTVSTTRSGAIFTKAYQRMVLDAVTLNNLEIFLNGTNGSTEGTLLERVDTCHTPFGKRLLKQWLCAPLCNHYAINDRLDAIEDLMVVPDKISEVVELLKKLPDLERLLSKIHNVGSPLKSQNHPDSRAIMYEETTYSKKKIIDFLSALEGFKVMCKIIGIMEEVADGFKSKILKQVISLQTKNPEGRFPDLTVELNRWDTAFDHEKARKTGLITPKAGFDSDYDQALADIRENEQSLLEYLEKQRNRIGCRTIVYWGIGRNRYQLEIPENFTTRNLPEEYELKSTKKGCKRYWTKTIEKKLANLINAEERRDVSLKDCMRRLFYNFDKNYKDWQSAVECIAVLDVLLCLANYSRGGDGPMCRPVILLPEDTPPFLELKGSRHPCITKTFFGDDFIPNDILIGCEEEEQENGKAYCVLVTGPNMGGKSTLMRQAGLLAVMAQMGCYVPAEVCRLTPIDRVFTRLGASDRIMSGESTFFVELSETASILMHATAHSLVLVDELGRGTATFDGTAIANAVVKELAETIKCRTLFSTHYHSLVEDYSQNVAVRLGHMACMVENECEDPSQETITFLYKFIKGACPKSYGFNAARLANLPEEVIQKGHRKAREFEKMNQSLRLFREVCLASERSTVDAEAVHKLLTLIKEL
UniProt Q9Y265: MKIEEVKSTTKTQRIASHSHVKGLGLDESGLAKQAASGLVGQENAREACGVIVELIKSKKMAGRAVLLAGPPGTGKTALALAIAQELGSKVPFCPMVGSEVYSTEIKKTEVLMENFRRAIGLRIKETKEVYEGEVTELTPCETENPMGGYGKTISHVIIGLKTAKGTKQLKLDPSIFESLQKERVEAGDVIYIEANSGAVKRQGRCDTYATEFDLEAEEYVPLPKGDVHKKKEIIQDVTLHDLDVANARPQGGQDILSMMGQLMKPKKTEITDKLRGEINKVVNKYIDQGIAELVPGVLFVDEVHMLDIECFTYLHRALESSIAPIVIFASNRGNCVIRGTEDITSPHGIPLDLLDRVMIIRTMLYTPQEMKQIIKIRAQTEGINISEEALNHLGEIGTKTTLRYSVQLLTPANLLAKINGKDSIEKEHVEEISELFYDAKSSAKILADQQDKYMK
UniProt Q6ZU65: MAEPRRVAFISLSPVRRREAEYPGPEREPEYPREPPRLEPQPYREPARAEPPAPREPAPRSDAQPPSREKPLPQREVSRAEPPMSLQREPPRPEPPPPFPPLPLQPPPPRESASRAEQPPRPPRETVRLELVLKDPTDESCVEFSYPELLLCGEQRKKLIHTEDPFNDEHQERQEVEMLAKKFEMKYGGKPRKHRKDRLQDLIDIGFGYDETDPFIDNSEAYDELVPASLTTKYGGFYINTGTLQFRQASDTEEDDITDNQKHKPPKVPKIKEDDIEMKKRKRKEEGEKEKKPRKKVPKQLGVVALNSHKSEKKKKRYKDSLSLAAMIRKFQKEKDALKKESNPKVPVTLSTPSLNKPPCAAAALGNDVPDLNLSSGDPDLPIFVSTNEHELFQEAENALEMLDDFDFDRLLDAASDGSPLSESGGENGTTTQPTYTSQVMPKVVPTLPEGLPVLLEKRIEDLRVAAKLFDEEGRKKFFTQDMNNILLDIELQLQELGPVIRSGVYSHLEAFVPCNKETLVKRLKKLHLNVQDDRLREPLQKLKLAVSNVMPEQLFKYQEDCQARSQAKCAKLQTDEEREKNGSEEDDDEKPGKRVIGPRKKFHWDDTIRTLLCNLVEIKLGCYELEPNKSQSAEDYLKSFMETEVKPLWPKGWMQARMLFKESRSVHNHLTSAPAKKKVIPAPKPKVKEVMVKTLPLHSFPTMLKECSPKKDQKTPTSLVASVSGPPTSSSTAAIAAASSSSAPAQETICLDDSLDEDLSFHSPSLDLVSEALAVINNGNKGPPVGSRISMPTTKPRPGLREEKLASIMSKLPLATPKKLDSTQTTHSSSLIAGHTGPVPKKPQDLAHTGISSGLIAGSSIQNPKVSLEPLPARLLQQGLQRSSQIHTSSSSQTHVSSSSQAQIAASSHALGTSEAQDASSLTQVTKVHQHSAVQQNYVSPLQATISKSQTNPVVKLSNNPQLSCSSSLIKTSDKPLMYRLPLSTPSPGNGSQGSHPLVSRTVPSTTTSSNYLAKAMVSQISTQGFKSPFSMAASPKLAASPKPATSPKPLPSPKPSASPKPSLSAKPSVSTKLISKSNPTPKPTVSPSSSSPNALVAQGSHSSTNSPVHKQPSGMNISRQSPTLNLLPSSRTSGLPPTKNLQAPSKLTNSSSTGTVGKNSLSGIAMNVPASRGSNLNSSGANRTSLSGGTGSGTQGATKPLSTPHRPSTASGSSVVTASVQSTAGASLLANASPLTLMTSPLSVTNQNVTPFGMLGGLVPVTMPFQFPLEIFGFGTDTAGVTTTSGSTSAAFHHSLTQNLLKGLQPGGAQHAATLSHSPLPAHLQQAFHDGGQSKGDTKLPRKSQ
UniProt P51114: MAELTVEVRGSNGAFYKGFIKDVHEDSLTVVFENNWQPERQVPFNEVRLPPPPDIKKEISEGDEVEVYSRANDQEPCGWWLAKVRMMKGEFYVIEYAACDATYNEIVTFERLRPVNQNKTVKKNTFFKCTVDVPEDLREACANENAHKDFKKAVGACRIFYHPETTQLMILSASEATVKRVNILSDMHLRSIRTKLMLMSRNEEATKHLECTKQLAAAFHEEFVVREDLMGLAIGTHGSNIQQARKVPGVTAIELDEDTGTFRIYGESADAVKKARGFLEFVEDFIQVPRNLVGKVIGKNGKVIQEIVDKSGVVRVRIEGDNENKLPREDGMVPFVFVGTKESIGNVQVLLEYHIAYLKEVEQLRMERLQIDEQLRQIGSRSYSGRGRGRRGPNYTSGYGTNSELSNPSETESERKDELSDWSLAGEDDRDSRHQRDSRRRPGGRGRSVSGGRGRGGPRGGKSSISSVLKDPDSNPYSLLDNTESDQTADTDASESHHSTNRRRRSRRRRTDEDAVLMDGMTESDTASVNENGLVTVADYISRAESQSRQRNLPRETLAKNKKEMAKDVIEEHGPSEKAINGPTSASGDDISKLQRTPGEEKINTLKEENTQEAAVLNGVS

Experiments:
Experiment in all cases: affinity purification with mass spectrometry; triple SILAC IP-MS: Strep-HA-tagged chaperone (WT, mutant, control cells) held on MagStrep type3 XT beads for 3 hrs at 4 °C from soluble HeLa S3 extracts (300 mM NaCl, 0.05 % Nonidet P40, 50 mM Tris.HCl pH 7.6); washes at 150 mM NaCl; eluted with BXT buffer
[1] = target: TwinStrep-HA-HJURP (HJURP-Strep-HA-WT) (human) (UniProt Q8NCD3)
[2] = target: Strep-HA-ASF1a-WT (human) (UniProt Q9Y294)
[3] = target: Strep-HA-ASF1b-WT (human) (UniProt Q9NVP2)
[4] = target: sNASP-WT-Strep-HA (human) (UniProt P49321)

Row | Molecule | binding [1] | binding [2] | also measured
1 | AKAP8 (from UniProt O43823 1-692) | binds | – | –
2 | FANCI (from UniProt Q9NVI1 1-1328) | binds | – | –
3 | HIRA (from UniProt P54198 1-1017) | – | binds | binding [3]: binds
4 | HNRPK (from UniProt P61978 1-463) | – | – | binding [4]: binds
5 | IMA5/KPNA1 (from UniProt P52294 1-538) | – | – | binding [4]: binds
6 | MSH6 (from UniProt P52701 1-1360) | binds | – | –
7 | PP1B (from UniProt P62140 1-327) | – | binds | –
8 | PRKDC (from UniProt P78527 1-4128) | binds | – | –
9 | RIF1 (from UniProt Q5UIP0 1-2472) | – | binds | –
10 | RUVB1 (from UniProt Q9Y265 1-456) | binds | – | –
11 | U520 (from UniProt O75643 1-2136) | – | – | binding [4]: binds
12 | UBN2 (from UniProt Q6ZU65 1-1347) | – | binds | binding [3]: binds
13 | TRIP13 (protein, UniProt Q15645 1-432) MDEAVGDLKQALPCVAESPTVHVEVHQRGSSTAKKEDINLSVRKLLNRHNIVFGDYTWTEFDEPFLTRNVQSVSIIDTELKVKDSQPIDLSACTVALHIFQLNEDGPSSENLEEETENIIAANHWVLPAAEFHGLWDSLVYDVEVKSHLLDYVMTTLLFSDKNVNSNLITWNRVVLLHGPPGTGKTSLCKALAQKLTIRLSSRYRYGQLIEINSHSLFSKWFSESGKLVTKMFQKIQDLIDDKDALVFVLIDEVESLTAARNACRAGTEPSDAIRVVNAVLTQIDQIKRHSNVVILTTSNITEKIDVAFVDRADIKQYIGPPSAAAIFKIYLSCLEELMKCQIIYPRQQLLTLRELEMIGFIENNVSKLSLLLNDISRKSEGLSGRVLRKLPFLAHALYVQAPTVTIEGFLQALSLAVDKQFEERKKLAAYI | binds | – | –

Second part, led by results:

Row | binding [1] | binding [2] | Molecule | also measured
14 | – | binds | CABIN (from UniProt Q9Y6J0 1-2220) | binding [3]: binds
15 | – | binds | FXR1 (from UniProt P51114 1-621) | binding [3]: binds
16 | – | binds | PP1A (from UniProt P62136 1-330) | –
17 | – | binds | UBN1 (from UniProt Q9NPG3 1-1134) | binding [3]: binds
18 | – | binds | XRCC6 (from UniProt P12956 1-609) | –

These are yes or no findings as the source states them, for the method shown. In cells and extracts the contact can be indirect. These calls come from enrichment with a bait or labelling near it, and not all partners need be listed.
